Test results reported in PubChem BioAssay AID1347423 (Functional Genomics Laboratory (NCATS/FGL), 2020).
Among all 52,000 sequences or so, about 210 (0.4%) were called active.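 The calls were made as follows: active = gene whose silencing raises cell survival under the drug, median off-target-corrected z-score across its silencing RNAs 2 or more; inactive = the rest.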 Some of the results follow.

test: Resistance to Poly (ADP-Ribose) Polymerase inhibitor: Gene Identification via Genome-wide siRNA Screen; conditions: mouse BRCA2 R2336H ES cells, olaparib, CellTiter-Glo viability; hits give high values
How it was run: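 Genome-wide siRNA screen (3 siRNAs/gene, 20 nM) in mouse ES cells carrying hypomorphic BRCA2 R2336H; olaparib 500 nM added 48 h post-transfection, CellTiter-Glo viability 72 h later. Normalized to plate-median negative control; MAD z-scores, gene median, seed-adjusted.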

Sequence	z-score
GUAACUCAGCAUUUGAUACTT against Krtap16-5	inactive: 0.115
GCAGCCUCUUCUAUUUGGCTT against Olfr354	inactive: 0.183
GGAUAUCCAAGCUUUUGAATT against Dnajc9	inactive: 1.08
GGAGAUUGGGAUCAAUUAGTT against B130022O04Rik	inactive: 1.13
GCUUUGUUCUAAAUUCAUGTT against Cd2ap	inactive: 0.744
GGACAUUUUACAGACUCCUTT against 4833405L16Rik	inactive: -1.69
GCGUGAAGUCUUUCUGGAGTT against Usp20	inactive: 0.259
GGAGCUUUUGGACAUUUAUTT against Laptm4a	inactive: -0.109
GGUGGAAGAGGAGAGUGAATT against Ncl	inactive: 1.87
GCCUAUGCUUAAUUAGCAUTT against Farp1	inactive: 0.184
CGGCAUCCAGUCUCAGAUGTT against Coch	inactive: 0.728
GGUCUUUAGCAAAUUGUUCTT against Lrrc6	inactive: 0.951
GGGCUUUCAUUCUUGUAUCTT against Olfr68	inactive: 0.329
GGACUUCUUCUUUAGCAGATT against Ddit4l	inactive: 0.616
GCUAUUCUGAUGCGUGGAGTT against 2310002F18Rik	inactive: -0.0159
GGAUGACACCAAGAAAUAUTT against 6430402L03Rik	inactive: -1.2
GCACGCAGACAAAAUGGGCTT against 4931433A13Rik	inactive: -0.237
CCUUCUCAAGUUCGACGUGTT against Mafb	inactive: 0.452
CCUUUAGCCAGACCAUUGCTT against U2af1	inactive: -2.52
GCUAGCUCGUGUGAUGUUUTT against Peo1	inactive: -2.89
GGAAAACUAUCUCCUUUUGTT against Olfr716	inactive: 0.364
GGUUGACCUUUAAGUUAAGTT against Tgfa	inactive: -0.62
GCCACGAAGACUAUAUAAGTT against Blvra	inactive: 0.323
CCUGAACGUGAGUGGAGAATT against Man1c1	inactive: -1.41
GCAAGAUUUUGACCAAAUGTT against Slc30a9	inactive: -0.491
CCAGCAAGAUAAUGGUAUCTT against Grin2a	inactive: -0.325
CCACUUUCUAGAAAUCCUATT against 5730578N08Rik	inactive: 1.09
GCCUGCACUUGCUAAGUUGTT against Pla2g5	inactive: -0.284
GGUGUUUGUUACCAGUAGCTT against 4933428G20Rik	inactive: 0.085

5 entries from above, in CSV form:
Sequence,z-score
GGUUGACCUUUAAGUUAAGTT against Tgfa,inactive: -0.62
GCCACGAAGACUAUAUAAGTT against Blvra,inactive: 0.323
CCUGAACGUGAGUGGAGAATT against Man1c1,inactive: -1.41
GCAAGAUUUUGACCAAAUGTT against Slc30a9,inactive: -0.491
CCAGCAAGAUAAUGGUAUCTT against Grin2a,inactive: -0.325
